Reference: the supplement of paper PMC10849652
This is one part of the list.

Amino acid sequences for entries named in this document (tags omitted). A change or cut given only in a name is not applied to a line headed by its entry.
UniProt O43303: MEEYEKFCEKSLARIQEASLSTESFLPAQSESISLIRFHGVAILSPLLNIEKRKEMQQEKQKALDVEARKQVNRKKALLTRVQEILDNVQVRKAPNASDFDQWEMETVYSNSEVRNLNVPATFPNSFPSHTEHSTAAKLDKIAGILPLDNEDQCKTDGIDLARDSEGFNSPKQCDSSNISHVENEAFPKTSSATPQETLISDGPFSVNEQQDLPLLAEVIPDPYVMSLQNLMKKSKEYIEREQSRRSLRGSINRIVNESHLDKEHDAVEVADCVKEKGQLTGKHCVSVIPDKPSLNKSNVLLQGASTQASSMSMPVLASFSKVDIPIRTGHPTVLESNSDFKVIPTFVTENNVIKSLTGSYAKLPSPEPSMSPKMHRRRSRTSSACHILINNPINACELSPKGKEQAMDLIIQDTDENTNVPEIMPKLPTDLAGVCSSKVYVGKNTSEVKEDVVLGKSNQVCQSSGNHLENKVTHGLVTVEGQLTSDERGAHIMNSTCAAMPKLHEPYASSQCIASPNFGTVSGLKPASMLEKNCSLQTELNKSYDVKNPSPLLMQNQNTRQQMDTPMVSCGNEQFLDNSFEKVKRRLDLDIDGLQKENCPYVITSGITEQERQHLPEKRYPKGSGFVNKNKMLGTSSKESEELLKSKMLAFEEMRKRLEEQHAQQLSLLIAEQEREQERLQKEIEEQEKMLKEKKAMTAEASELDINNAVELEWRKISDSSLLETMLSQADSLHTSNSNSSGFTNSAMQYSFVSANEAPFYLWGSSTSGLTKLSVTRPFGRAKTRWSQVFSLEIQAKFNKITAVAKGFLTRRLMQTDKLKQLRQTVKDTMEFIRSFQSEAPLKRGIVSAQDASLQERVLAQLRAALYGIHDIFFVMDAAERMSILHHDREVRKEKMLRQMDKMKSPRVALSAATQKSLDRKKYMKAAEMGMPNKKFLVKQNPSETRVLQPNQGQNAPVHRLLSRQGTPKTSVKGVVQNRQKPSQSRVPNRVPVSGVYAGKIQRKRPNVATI
UniProt O00421: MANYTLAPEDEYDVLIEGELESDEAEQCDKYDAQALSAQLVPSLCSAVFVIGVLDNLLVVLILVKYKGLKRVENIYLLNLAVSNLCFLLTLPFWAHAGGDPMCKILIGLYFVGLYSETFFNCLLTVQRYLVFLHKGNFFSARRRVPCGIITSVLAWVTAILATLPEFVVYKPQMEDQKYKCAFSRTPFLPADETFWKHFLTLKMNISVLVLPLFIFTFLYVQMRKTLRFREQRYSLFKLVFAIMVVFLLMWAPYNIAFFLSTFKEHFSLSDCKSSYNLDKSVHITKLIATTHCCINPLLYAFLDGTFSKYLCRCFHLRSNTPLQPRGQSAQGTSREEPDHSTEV
UniProt P40259: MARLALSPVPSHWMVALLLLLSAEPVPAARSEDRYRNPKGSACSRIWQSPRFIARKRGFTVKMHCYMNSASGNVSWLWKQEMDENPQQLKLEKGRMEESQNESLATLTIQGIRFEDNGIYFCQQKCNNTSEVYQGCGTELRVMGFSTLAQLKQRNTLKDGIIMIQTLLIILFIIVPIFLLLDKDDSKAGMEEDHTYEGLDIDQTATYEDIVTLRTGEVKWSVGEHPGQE
UniProt Q96M89: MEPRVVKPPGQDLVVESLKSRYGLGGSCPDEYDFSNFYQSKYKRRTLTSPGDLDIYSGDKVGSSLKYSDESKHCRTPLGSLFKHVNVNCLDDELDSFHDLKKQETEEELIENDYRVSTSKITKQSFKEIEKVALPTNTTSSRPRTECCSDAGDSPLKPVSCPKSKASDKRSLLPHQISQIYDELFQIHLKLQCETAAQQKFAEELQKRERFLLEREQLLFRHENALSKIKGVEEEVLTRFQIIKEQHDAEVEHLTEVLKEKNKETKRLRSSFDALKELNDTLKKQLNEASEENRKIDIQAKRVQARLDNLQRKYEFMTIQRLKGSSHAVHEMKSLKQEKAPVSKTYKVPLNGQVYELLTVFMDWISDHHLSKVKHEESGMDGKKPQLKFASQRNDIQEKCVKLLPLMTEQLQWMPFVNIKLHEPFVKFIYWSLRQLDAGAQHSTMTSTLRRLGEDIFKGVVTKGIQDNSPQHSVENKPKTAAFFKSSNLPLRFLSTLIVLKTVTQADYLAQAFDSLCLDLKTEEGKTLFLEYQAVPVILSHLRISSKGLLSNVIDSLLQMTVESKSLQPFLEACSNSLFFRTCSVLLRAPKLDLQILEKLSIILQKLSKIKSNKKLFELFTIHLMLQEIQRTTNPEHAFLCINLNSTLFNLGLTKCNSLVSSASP
UniProt Q04900: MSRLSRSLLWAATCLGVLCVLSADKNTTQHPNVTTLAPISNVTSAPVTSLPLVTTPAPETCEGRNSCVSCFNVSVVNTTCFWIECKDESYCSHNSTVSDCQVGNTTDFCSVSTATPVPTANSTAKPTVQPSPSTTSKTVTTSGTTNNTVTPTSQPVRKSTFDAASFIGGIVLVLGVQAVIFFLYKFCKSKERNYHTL
UniProt Q6YHK3: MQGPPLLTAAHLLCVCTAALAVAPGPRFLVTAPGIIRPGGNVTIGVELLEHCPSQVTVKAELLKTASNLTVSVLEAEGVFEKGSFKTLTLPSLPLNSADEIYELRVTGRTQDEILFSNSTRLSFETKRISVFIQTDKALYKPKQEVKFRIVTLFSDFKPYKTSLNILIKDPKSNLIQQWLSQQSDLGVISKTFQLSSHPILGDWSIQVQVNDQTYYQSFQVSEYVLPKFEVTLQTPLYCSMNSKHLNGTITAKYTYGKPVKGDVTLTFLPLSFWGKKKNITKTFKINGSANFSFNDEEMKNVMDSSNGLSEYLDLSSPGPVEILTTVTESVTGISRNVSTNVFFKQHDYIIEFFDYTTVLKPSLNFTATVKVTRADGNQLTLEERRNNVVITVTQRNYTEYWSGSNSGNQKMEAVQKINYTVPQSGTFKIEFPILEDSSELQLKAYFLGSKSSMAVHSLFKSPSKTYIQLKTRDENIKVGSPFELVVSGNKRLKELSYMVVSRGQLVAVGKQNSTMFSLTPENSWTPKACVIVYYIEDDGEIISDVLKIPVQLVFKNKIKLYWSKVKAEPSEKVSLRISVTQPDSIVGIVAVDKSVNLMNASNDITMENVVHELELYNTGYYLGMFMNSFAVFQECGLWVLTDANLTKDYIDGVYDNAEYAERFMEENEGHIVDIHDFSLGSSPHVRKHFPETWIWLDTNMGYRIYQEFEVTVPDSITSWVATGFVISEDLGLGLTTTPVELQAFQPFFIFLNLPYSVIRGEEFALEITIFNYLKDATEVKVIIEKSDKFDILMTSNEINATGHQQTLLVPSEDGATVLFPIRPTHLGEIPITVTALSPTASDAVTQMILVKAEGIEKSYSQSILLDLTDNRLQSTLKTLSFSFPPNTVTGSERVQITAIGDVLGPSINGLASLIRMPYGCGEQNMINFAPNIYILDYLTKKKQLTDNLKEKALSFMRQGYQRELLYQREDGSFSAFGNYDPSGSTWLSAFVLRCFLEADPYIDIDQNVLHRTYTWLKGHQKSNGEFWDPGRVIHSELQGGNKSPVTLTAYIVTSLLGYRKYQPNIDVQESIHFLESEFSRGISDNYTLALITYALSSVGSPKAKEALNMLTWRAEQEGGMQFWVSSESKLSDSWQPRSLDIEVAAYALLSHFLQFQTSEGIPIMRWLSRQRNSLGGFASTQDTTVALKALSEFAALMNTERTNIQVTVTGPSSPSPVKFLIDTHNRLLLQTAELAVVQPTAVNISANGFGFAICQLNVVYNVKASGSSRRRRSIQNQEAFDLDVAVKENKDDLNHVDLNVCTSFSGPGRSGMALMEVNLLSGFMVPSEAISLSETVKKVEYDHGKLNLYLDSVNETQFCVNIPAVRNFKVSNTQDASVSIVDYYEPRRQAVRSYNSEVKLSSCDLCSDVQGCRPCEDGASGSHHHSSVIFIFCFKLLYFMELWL
UniProt P25942, whole entry, looked up: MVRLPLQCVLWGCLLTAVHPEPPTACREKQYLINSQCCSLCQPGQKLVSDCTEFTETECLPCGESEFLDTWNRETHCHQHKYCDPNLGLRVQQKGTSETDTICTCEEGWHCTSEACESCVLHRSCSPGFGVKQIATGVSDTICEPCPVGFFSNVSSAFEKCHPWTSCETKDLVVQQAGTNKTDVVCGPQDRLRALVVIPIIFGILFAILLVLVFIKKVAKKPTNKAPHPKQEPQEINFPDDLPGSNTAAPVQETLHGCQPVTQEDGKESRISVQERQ
UniProt Q9NQ75: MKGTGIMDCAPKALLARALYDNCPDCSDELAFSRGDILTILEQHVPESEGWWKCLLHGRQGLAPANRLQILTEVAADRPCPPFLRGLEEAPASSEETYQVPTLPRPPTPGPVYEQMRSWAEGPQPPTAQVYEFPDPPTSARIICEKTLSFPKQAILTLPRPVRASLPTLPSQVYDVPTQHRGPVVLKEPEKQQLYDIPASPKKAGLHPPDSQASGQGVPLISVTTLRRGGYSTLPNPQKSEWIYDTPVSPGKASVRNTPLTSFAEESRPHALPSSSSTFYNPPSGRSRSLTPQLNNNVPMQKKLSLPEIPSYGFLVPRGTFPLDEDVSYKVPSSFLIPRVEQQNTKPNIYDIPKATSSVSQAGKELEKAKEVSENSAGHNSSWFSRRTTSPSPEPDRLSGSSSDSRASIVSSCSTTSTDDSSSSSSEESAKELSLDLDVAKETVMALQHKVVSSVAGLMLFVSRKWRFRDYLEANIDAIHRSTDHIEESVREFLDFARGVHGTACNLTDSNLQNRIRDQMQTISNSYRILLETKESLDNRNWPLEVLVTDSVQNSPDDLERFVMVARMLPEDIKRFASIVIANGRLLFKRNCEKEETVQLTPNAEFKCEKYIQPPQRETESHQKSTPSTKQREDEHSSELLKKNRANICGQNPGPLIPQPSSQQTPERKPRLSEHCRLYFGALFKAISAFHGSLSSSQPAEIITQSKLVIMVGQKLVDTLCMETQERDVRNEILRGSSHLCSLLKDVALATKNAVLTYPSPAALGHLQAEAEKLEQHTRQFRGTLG
UniProt Q92851: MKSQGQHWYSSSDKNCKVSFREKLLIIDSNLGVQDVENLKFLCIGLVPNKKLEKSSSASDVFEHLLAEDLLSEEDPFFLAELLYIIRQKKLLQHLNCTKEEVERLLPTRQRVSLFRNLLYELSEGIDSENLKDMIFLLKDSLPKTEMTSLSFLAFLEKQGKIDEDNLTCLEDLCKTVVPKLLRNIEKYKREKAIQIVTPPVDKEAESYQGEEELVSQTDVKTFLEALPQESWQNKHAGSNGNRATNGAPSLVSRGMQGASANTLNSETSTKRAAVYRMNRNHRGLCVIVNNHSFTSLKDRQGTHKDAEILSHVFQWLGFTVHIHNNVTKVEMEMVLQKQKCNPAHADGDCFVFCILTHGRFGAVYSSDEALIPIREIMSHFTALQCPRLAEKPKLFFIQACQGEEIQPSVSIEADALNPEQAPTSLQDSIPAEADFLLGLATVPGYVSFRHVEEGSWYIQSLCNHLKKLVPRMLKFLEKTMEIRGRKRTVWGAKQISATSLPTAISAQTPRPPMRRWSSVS
UniProt Q9H0W5: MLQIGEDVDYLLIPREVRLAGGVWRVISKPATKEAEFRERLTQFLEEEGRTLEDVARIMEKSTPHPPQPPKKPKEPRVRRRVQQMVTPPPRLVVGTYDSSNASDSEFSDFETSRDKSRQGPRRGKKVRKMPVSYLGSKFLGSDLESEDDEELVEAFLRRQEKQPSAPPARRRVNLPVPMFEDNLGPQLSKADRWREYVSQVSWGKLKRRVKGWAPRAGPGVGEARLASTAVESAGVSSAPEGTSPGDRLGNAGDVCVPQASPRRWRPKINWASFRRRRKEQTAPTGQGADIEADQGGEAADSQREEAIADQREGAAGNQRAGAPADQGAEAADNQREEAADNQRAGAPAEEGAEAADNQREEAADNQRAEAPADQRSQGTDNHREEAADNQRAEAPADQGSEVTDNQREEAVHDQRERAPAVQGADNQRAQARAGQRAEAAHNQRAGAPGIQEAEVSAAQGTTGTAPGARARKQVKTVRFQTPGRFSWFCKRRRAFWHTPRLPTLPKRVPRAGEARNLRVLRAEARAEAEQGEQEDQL
UniProt P34810: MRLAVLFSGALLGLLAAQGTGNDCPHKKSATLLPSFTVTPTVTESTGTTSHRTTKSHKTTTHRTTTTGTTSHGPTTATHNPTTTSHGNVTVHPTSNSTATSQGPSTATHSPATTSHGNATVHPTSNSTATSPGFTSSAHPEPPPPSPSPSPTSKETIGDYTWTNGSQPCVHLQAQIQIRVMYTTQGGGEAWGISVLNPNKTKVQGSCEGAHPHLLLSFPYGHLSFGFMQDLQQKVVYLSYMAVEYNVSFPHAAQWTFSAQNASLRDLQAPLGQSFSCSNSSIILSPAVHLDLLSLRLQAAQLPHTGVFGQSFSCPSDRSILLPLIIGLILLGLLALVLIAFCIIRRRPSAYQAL
UniProt Q96MW1: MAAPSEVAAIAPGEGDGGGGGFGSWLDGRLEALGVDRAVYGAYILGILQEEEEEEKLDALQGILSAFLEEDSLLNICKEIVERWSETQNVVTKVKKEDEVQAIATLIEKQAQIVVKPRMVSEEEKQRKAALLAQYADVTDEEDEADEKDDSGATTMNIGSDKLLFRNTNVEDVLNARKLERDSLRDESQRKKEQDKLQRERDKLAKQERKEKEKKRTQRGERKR

Assays:
Assay in all cases: log2 fold change, soluble protein after heating vs DMSO (PISA); higher = thermal stabilisation; K562 lysate, 10 uM; active = over 0.2 and 3.5 SD of the protein, either way, in both replicates (recomputed)
crizotinib = compound: C[C@@H](Oc1cc(-c2cnn(C3CCNCC3)c2)cnc1N)c1c(Cl)ccc(F)c1Cl [crizotinib]
Summary of the method: (§1)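 Thermal stability, expressed as log-two fold change relative to solvent controls, is given from duplicates. Crude K562 extract in PBS pH 7.4 with 1 mM MgCl2, at 1 mg/mL protein, was treated with 10 μM compound for 30 min and heated in aliquots for 3 min across 48°C-58°C. After pooling, adjustment to 0.5% NP-40 at 4°C and centrifugation at 21,000xg for 90 min, supernatant protein was measured by TMTpro 16plex LC-MS/MS with channel sums equalised.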

[1] = compound: C[C@H](C1=CC=C(C=C1)C(=O)NC2=C3C=CNC3=NC=C2)N
Summary of the method: as §1

gandotinib = compound: Cc1cc(Nc2cc(CN3CCOCC3)c3nc(C)c(Cc4ccc(Cl)cc4F)n3n2)n[nH]1 [gandotinib]
Summary of the method: as §1

doramapimod = compound: Cc1ccc(-n2nc(C(C)(C)C)cc2NC(=O)Nc2ccc(OCCN3CCOCC3)c3ccccc23)cc1 [doramapimod]
Summary of the method: as §1

[2] = compound: Cc1cccc(CC(=O)N2CCc3c2ccc(-c2cn(C)c4ncnc(N)c24)c3F)n1
Summary of the method: as §1

quisinostat = compound: Cn1cc(CNCC2CCN(c3ncc(C(=O)NO)cn3)CC2)c2ccccc21 [quisinostat]
Summary of the method: as §1

[3] = compound: NC(=O)Nc1cc(-c2cccc(F)c2)sc1C(=O)N[C@H]1CCCNC1
Summary of the method: as §1

pictilisib = compound: CS(=O)(=O)N1CCN(Cc2cc3nc(-c4cccc5[nH]ncc45)nc(N4CCOCC4)c3s2)CC1 [pictilisib]
Summary of the method: as §1

duvelisib = compound: C[C@H](Nc1ncnc2nc[nH]c12)c1cc2cccc(Cl)c2c(=O)n1-c1ccccc1 [duvelisib]
Summary of the method: as §1

tozasertib = compound: Cc1cc(Nc2cc(N3CCN(C)CC3)nc(Sc3ccc(NC(=O)C4CC4)cc3)n2)n[nH]1 [tozasertib]
Summary of the method: as §1

bafetinib = compound: Cc1ccc(NC(=O)c2ccc(CN3CC[C@H](N(C)C)C3)c(C(F)(F)F)c2)cc1Nc1nccc(-c2cncnc2)n1 [bafetinib]
Summary of the method: as §1

dasatinib = compound: Cc1nc(Nc2ncc(C(=O)Nc3c(C)cccc3Cl)s2)cc(N2CCN(CCO)CC2)n1 [dasatinib]
Summary of the method: as §1

[4] = compound: Cn1cc(-c2ccc3c(c2)CCN3C(=O)Cc2cccc(C(F)(F)F)c2)c2c(N)ncnc21
Summary of the method: as §1

[5] = compound: NC1(c2ccc(-c3nc4ccn5c(=O)[nH]nc5c4cc3-c3ccccc3)cc2)CCC1
Summary of the method: as §1

nilotinib = compound: Cc1cn(-c2cc(NC(=O)c3ccc(C)c(Nc4nccc(-c5cccnc5)n4)c3)cc(C(F)(F)F)c2)cn1 [nilotinib]
Summary of the method: as §1

[6] = compound: Cc1nc(Nc2n[nH]c3c2CN(C(=O)N[C@H](CN(C)C)c2ccccc2)C3(C)C)c2sccc2n1
Summary of the method: as §1

[7] = compound: Cc1ncc(-c2ccnc(Nc3ccc(S(C)(=O)=O)cc3)n2)n1C(C)C
Summary of the method: as §1

tipifarnib = compound: Cn1cncc1[C@@](N)(c1ccc(Cl)cc1)c1ccc2c(c1)c(-c1cccc(Cl)c1)cc(=O)n2C [tipifarnib]
Summary of the method: as §1

Measured: log2 fold change

CCND1 (UniProt P24385)
inactive: crizotinib -0.22 | [1] -0.215 | gandotinib 0.119 | doramapimod 0.062 | [2] -0.025 | quisinostat -0.386 | [3] 0.126

CCP110 (UniProt O43303)
inactive: pictilisib -0.085 | crizotinib -0.006 | duvelisib 0.084 | tozasertib -0.009 | doramapimod 0.009 | bafetinib -0.053 | dasatinib 0.063 | [4] -0.01 | quisinostat -0.062 | [3] 0.107 | [5] 0.055

CCRL2 isoform 2 (UniProt O00421)
inactive: pictilisib -0.041 | bafetinib -0.105 | nilotinib 0.164 | [6] -0.141 | [7] -0.069 | tipifarnib -0.076 | [5] -0.152

CD44 (UniProt P16070)
inactive: [1] 0.032 | gandotinib -0.044 | tozasertib 0.364 | [2] -0.046 | nilotinib 0.058 | [6] 0.005 | [7] 0.102 | tipifarnib -0.079 | [5] 0.087

CCDC130 (UniProt P13994)
inactive: pictilisib -0.003 | crizotinib -0.689 | tozasertib 0.055 | doramapimod 0.617 | bafetinib -0.119 | quisinostat -0.583 | [3] -0.183 | [5] 0.259

CD79B isoform 3 (UniProt P40259)
inactive: duvelisib 0.3 | dasatinib -1.6 | [4] -0.002

CCDC71L (UniProt Q8N9Z2)
inactive: [1] -0.149 | duvelisib -0.033 | gandotinib 0.042 | [2] 0.121 | dasatinib 0.002 | [4] 0.102

CD276 (UniProt Q5ZPR3)
inactive: [1] -0.08 | gandotinib -0.338 | [2] -0.086 | [5] -0.109

CBX8 (UniProt Q9HC52)
inactive: crizotinib -0.184 | tozasertib -0.122 | doramapimod 0.037 | quisinostat 0.037 | [3] -0.066

CCDC138 (UniProt Q96M89)
inactive: nilotinib 0.034 | [6] 0.03 | [7] -0.036 | tipifarnib -0.01

CD164 (UniProt Q04900)
inactive: crizotinib -0.133 | doramapimod -0.106 | quisinostat -0.459 | [3] 0.085 | [5] 0.189

CD109 (UniProt Q6YHK3)
inactive: [1] 0.322 | gandotinib 0.331 | [2] 0.143

CASC1 (UniProt Q6TDU7)
inactive: pictilisib -0.06 | [1] -0.175 | gandotinib 0.058 | bafetinib 0.953 | [2] 0.095

CCT8 (UniProt H7C4C8)
inactive: crizotinib -0.084 | doramapimod 0.192 | nilotinib -0.18 | [6] 0.177 | [7] 0.255 | quisinostat -0.013 | tipifarnib 0.171 | [3] -0.001

CCDC136 isoform 4 (UniProt Q96JN2)
inactive: crizotinib -0.101 | [1] -0.065 | duvelisib 0.056 | gandotinib -0.157 | tozasertib -0.029 | doramapimod 0.123 | [2] 0.099 | dasatinib 0.153 | [4] 0.037 | quisinostat 0.049 | [3] 0.021 | [5] -0.047

CD40 (UniProt P25942)
inactive: [1] 0.102 | gandotinib 0.253 | [2] 0.043

CASS4 (UniProt Q9NQ75)
inactive: crizotinib -0.048 | [1] -0.112 | duvelisib -0.047 | gandotinib 0.053 | tozasertib 0.004 | doramapimod -0.173 | [2] -0.073 | nilotinib 0.008 | [6] 0.116 | dasatinib -0.097 | [7] 0.128 | [4] -0.075 | quisinostat -0.164 | tipifarnib -0.059 | [3] 0.181 | [5] -0.127

CCDC152 (UniProt Q4G0S7)
inactive: crizotinib -0.031 | duvelisib 0.034 | doramapimod -0.103 | dasatinib -0.036 | [4] 0.066 | quisinostat -0.012 | [3] -0.052 | [5] 0.353

CCDC66 (UniProt A2RUB6)
inactive: tozasertib -0.022

CCDC167 (UniProt Q9P0B6)
inactive: pictilisib 0.113 | crizotinib -0.024 | doramapimod -0.01 | bafetinib 0.007 | nilotinib -0.014 | [6] -0.024 | [7] 0.131 | quisinostat -0.05 | tipifarnib -0.062 | [3] 0.131 | [5] -0.065

CCDC18 (UniProt Q5T9S5)
inactive: crizotinib -0.17 | [1] -0.209 | duvelisib 0.047 | gandotinib 0.297 | tozasertib 0.139 | doramapimod 0.021 | [2] 0.299 | nilotinib 0.121 | [6] -0.079 | dasatinib -0.041 | [7] 0.258 | [4] -0.037 | quisinostat -0.246 | tipifarnib -0.102 | [3] 0.045

CASP10 isoform 2 (UniProt Q92851)
inactive: duvelisib -0.02 | tozasertib 0.004 | dasatinib 0.069 | [4] 0.106

CCDC88A isoform 2 (UniProt Q3V6T2)
inactive: [1] -0.202 | gandotinib -0.025 | [2] 0.041 | nilotinib -0.304 | [6] 0.095 | [7] 0.057 | tipifarnib 0.028

CASTOR1 (UniProt Q8WTX7)
inactive: crizotinib 0.066 | doramapimod -0.102 | quisinostat -0.188 | [3] 0.227

CD46 (UniProt P15529)
inactive: crizotinib 0.037 | doramapimod -0.038 | quisinostat -0.021 | [3] 0.09 | [5] 0.011

CCDC8 (UniProt Q9H0W5)
inactive: duvelisib 0.268 | nilotinib 0.066 | [6] -0.138 | dasatinib 0.025 | [7] 0.058 | [4] -0.033 | tipifarnib -0.349

CCDC102A (UniProt Q96A19)
inactive: pictilisib -0.082 | crizotinib -0.122 | tozasertib -0.034 | doramapimod 0.085 | bafetinib -0.165 | quisinostat -0.008 | [3] -0.097 | [5] 0.089

CD68 (UniProt P34810)
inactive: crizotinib -0.076 | [1] -0.287 | gandotinib -0.022 | tozasertib 0.057 | doramapimod -0.229 | [2] 0.08 | quisinostat 0.118 | [3] 0.038 | [5] 0.082

CASP8 isoform 4 (UniProt Q14790)
inactive: pictilisib -0.099 | duvelisib -0.054 | bafetinib 0.01 | dasatinib -0.141 | [4] -0.201

CCDC144A (UniProt A2RUR9)
inactive: pictilisib -0.084 | crizotinib 0.023 | duvelisib -0.141 | tozasertib -0.093 | doramapimod 0.134 | bafetinib -0.287 | dasatinib -0.152 | [4] 0.036 | quisinostat -0.064 | [3] 0.047 | [5] -0.166

CCDC43 isoform 2 (UniProt Q96MW1)
inactive: [5] 0.147

CD69 (UniProt Q07108)
inactive: crizotinib -0.037 | doramapimod 0.099 | quisinostat -0.059 | [3] 0.073

Two successive entries from above:
CCDC144A (UniProt A2RUR9)
inactive: pictilisib -0.084 | crizotinib 0.023 | duvelisib -0.141 | tozasertib -0.093 | doramapimod 0.134 | bafetinib -0.287 | dasatinib -0.152 | [4] 0.036 | quisinostat -0.064 | [3] 0.047 | [5] -0.166

CCDC43 isoform 2 (UniProt Q96MW1)
inactive: [5] 0.147
